Experimental data reported in publication PMC3742443.
Where a chain is given by its changes, count along the chain named. Names may count otherwise. These are yes or no findings as the source states them, for the method shown. Binding seen in cells or lysates may run through a third protein. Some results given as binding are weak or reduced against the parent protein; the word gives no strength. Values belong to the binder of their own block, whether it stands above or below them.

Tests used:
Experiment in all cases: co-IP; HeLa cells co-transfected with differentially tagged (FLAG and Myc) MYRF constructs; sonicated lysate incubated with FLAG antibody-coated beads for 2 h at 4°C; Sup and Bead fractions blotted
[1] = molecular target: full-length MYRF, catalytic residue mutant K583A (human) (UniProt Q9Y2G1)
[2] = molecular target: full-length MYRF, leucine zipper mutant L683A (human) (UniProt Q9Y2G1)
[3] = molecular target: C-terminal fragment generated by the auto-processing of MYRF (from MYRF-6M and MYRF-3F) (human) (UniProt Q9Y2G1)

- binding [1]: binds
B1: full-length MYRF, catalytic residue mutant K583A (protein, UniProt Q9Y2G1-2 1-1111)
chain: MHWLPAGHDINGALEPSNIDTSILEEYISKEDASDLCFPDISAPASSASYSHGQPAMPGSSGVHHLSPPGGGPSPGRHGPLPPPGYGTPLNCNNNNGMGAAPKPFPGGTGPPIKAEPKAPYAPGTLPDSPPDSGSEAYSPQQVNEPHLLRTITPETLCHVGVPSRLEHPPPPPAHLPGPPPPPPPPPHYPVLQRDLYMKAEPPIPHYAAMGQGLVPTDLHHTQQSQMLHQLLQQHGAELPTHPSKKRKHSESPPSTLNAQMLNGMIKQEPGTVTALPLHPTRAPSPPWPPQGPLSPGPGSLPLSIARVQTPPWHPPGAPSPGLLQDSDSLSGSYLDPNYQSIKWQPHQQNKWATLYDANYKELPMLTYRVDADKGFNFSVGDDAFVCQKKNHFQVTVYIGMLGEPKYVKTPEGLKPLDCFYLKLHGVKLEALNQSINIEQSQSDRSKRPFNPVTVNLPPEQVTKVTVGRLHFSETTANNMRKKGKPNPDQRYFMLVVALQAHAQNQNYTLAAQISERIIVRASNPGQFESDSDVLWQRAQVPDTVFHHGRVGINTDRPDEALVVHGNVKVMGSLMHPSDLRAAEHVQEVDTTEQLKRISRMRLVHYRYKPEFAASAGIEATAPETGVIAQEVKEILPEAVKDTGDMVFANGKTIENFLVVNKERIFMENVGAVKELCKLTDNLETRIDELERWSHKLAKLRRLDSLKSTGSSGAFSHAGSQFSRAGSVPHKKRPPKVASKSSSVVPDQACISQRFLQGTIIALVVVMAFSVVSMSTLYVLSLRTEEDLVDTDGRSSQSFGTTQLRQSPLTTGLPGIQPSLLLVTTSLTSSAPGSAVRTLDMCSSHPCPVICCSSPTTNPTTGPSLGPSFNPGHVLSPSPSPSTNRSGPSQMALLPVTNIRAKSWGLSVNGIGHSKHHKSLEPLASPAVPFPGGQGKAKNSPSLGFHGRARRGALQSSVGPAEPTWAQGQSEPVPSLTSIQVLENSMSITSQYCAPGDACRPGNFTYHIPVSSGTPLHLSLTLQMNSSSPVSVVLCSLRSKEEPCEEGSLPQSLHTHQDTQGTSHRWPITILSFREFTYHFRVALLGQANCSSEALAQPATDYHFHFYRLCD

- binding [2]: binds
B2: full-length MYRF, leucine zipper mutant L683A (protein, UniProt Q9Y2G1-2 1-1111)
chain: B1 chain with A583K, L683A

- binding [3]: binds
B3: C-terminal fragment generated by the auto-processing of MYRF (from MYRF-6M and MYRF-3F) (domain or fragment, UniProt Q9Y2G1-2 578-1111)
chain: SDLRAKEHVQEVDTTEQLKRISRMRLVHYRYKPEFAASAGIEATAPETGVIAQEVKEILPEAVKDTGDMVFANGKTIENFLVVNKERIFMENVGAVKELCKLTDNLETRIDELERWSHKLAKLRRLDSLKSTGSSGAFSHAGSQFSRAGSVPHKKRPPKVASKSSSVVPDQACISQRFLQGTIIALVVVMAFSVVSMSTLYVLSLRTEEDLVDTDGRSSQSFGTTQLRQSPLTTGLPGIQPSLLLVTTSLTSSAPGSAVRTLDMCSSHPCPVICCSSPTTNPTTGPSLGPSFNPGHVLSPSPSPSTNRSGPSQMALLPVTNIRAKSWGLSVNGIGHSKHHKSLEPLASPAVPFPGGQGKAKNSPSLGFHGRARRGALQSSVGPAEPTWAQGQSEPVPSLTSIQVLENSMSITSQYCAPGDACRPGNFTYHIPVSSGTPLHLSLTLQMNSSSPVSVVLCSLRSKEEPCEEGSLPQSLHTHQDTQGTSHRWPITILSFREFTYHFRVALLGQANCSSEALAQPATDYHFHFYRLCD
